According to PubChem BioAssay AID504444 (National Center for Advancing Translational Sciences (NCATS), 2011):
The whole screen tested about 360,000 compounds, of which about 7,500 (2.1%) were called active. This list was built around the results that the source calls inconclusive (neither active nor inactive); the mix of calls is not that of the screen. Calls come from the whole dose curve; as a rule, active = well fitted inhibition curve with a large enough effect; inconclusive = small, poorly fitted or top-dose-only effect, or effect the other way; inactive = flat fitted curve, though single readings scatter. Potencies beside an inconclusive call are fits to weak or partial responses and may not hold up.

assay: Nrf2 qHTS screen for inhibitors; conditions: A549 ARE-Fluc reporter, luciferase luminescence, 18-24 h; series mostly up to 46 µM; note: nearly all actives have a fitted effect of over 60% in size
How it was run: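 In this cell-based qHTS, ARE-driven firefly luciferase in A549 cells reports Nrf2 activity; the luminescent signal after BugLite lysis is the measured value, with a prior CellTiter-Fluor read for cell health.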
Potency is the fitted concentration of half-maximal effect.

| Compound | Potency |
| --- | --- |
| Fc1ccc(COc2cccc3cccnc23)cc1 | inconclusive: 11.6 µM [activator, partial curve] |
| CN(C)c1ccc(N=Nc2ccccc2C(=O)OCC(=O)N(C)c2ccccc2)cc1 | inactive |
| Cn1c(SCC(=O)Nc2ccc(F)cc2)nc2c(c1=O)SCC2 | inconclusive: 29.1 µM [falling, single point] |
| CCCOC(=O)c1c(NC(=O)c2nc3ncccn3n2)sc(C(=O)OCC)c1C | inactive |
| Cn1c(N)c(C(=O)COC(=O)COc2cccc(Br)c2)c(=O)n(C)c1=O | inconclusive: 32.6 µM [activator, partial curve, poor fit] |
| Cc1ccc(C2CCN(C(=O)c3cnn(-c4ccccc4Cl)c3C3CCN(C(=O)OC(C)(C)C)CC3)C2)cc1 (configuration not stated) | inconclusive: 23.1 µM [falling, single point] |
| Cc1ccccc1C(=O)Nc1ccc(C(=O)N/N=C/c2ccc(O)cc2)cc1 | inconclusive: 20.6 µM [falling, single point] |
| O=C(Cc1ccc(Cl)cc1Cl)NCC1(N2CCOCC2)CCCCC1 | inconclusive: 0.651 µM [activator, full curve, poor fit] |
| Cc1ccc(NC(=S)N(CCCN2CCN(C)CC2)Cc2cccs2)cc1C | inconclusive: 4.11 µM [activator, full curve, poor fit] |
| COc1ccc(C(=O)/C=C/c2ccc(N3CCCCC3)c([N+](=O)[O-])c2)cc1 | inactive |
| CCn1c(SCC(=O)c2ccccc2)nnc1-c1cccs1 | inconclusive: 20.6 µM [activator, single point] |
| COc1ccc(-c2ccc3c(c2)S(=O)(=O)c2cccc(C(=O)NCCOc4ccccc4Cl)c2C3=O)cc1OC | inconclusive: 5.8 µM [falling, partial curve, poor fit] |
| Cc1c(-n2cc(C(=O)O)c(=O)c3cc(F)c(N4CCCC4)c(F)c32)c(=O)n(-c2ccccc2)n1C | inconclusive: 0.259 µM [activator, full curve, poor fit] |
| C/C(=N\NC(=O)c1ccccc1)c1ccc(C)c([N+](=O)[O-])c1 | inconclusive: 11.6 µM [activator, partial curve, poor fit] |
| CCOc1ccc(CNC(=O)c2ccc(Sc3ccc(C)cc3)c(NC(C)=O)c2)cc1OC | inconclusive: 16.4 µM [falling, single point] |
| CCOc1ccc(NC(=O)c2cccc3c2C(=O)N(Cc2cccnc2)C3)cc1 | inconclusive: 5.01 µM [falling, partial curve, poor fit] |
| CCC(C)Sc1cc(-c2nc3ccc(Cl)cn3c2NC2CCCCC2)ccc1OC (configuration not stated) | inconclusive: 29.1 µM [falling, single point] |
| CCOC(=O)c1ccc2c(c1)[nH]c(=S)n2CC | inconclusive: 6.51 µM [activator, partial curve, poor fit] |
| Cn1nc(C(=O)N2CCN(c3ccccc3)CC2)c2c1-c1ccccc1SC2 | inconclusive: 29.1 µM [falling, single point] |
| COc1ccc(-c2csc(NC(=O)CSc3nc(C)cs3)n2)cc1 | inconclusive: 11.6 µM [activator, partial curve, poor fit] |
| NNC(=O)c1csc(Cc2c(Cl)sc3ccc(Cl)cc23)n1 | inactive |
| COc1ccc(CN(C(=O)c2ccc(-c3ccccc3)[nH]2)C(C(=O)NC(C)(C)C)c2ccncc2)cc1 (configuration not stated) | inconclusive: 29.1 µM [falling, single point] |
| COc1ccc(C(=O)Sc2ccc(C)cc2)cc1OC | inactive |

Structures listed so far with fluorine:

| Compound | Potency |
| --- | --- |
| Fc1ccc(COc2cccc3cccnc23)cc1 | inconclusive: 11.6 µM [activator, partial curve] |
| Cn1c(SCC(=O)Nc2ccc(F)cc2)nc2c(c1=O)SCC2 | inconclusive: 29.1 µM [falling, single point] |
| Cc1c(-n2cc(C(=O)O)c(=O)c3cc(F)c(N4CCCC4)c(F)c32)c(=O)n(-c2ccccc2)n1C | inconclusive: 0.259 µM [activator, full curve, poor fit] |

The list continues.

| Compound | Potency |
| --- | --- |
| CC/C(=C\C1CCCCC1)C(NP(=O)(c1ccccc1)c1ccccc1)c1ccccc1 (configuration not stated) | inconclusive: 29.1 µM [falling, single point] |
| CN(C)c1ccc(C(=S)N2CCN(C(=S)Nc3ccc(Cl)cc3)CC2)cc1 | inconclusive: 5.8 µM [falling, full curve, poor fit] |
| CCCCN1C(=O)C(=O)N(CC(=O)Nc2sc(C)c(CC)c2C(=O)OCC)C1=O | inactive |
| Cc1ccc(NC(=O)C2CCCN(S(=O)(=O)c3cccc4cccnc34)C2)cc1Cl (configuration not stated) | inconclusive: 32.6 µM [falling, single point] |
| CCN(CC)CCNCC(=O)Nc1ccc(Oc2ccccc2)cc1 | inconclusive: 1.84 µM [falling, full curve, poor fit] |
| c1ccc(-c2csc(Nc3ncccn3)n2)cc1 | inconclusive: 0.731 µM [activator, full curve] |
| COC(=O)c1cc(NC2c3ncccc3C(=O)N2Cc2ccccc2)cc(C(=O)OC)c1 (configuration not stated) | inconclusive: 32.6 µM [falling, single point] |
| COc1cc(-c2nnn(CC(=O)N3CCOCC3)n2)cc(OC)c1OC | inactive |
| Cc1ccc(-c2nc(-c3nccc4ccccc34)oc2-c2ccccc2)cc1 | inconclusive: 25.9 µM [activator, single point] |
| C/C(=N\NC(=O)c1ccccc1C)c1cccnc1 | inconclusive: 23.1 µM [activator, single point] |
| Cc1ccc2[nH]cc(C(c3ccccc3)c3cccs3)c2c1 (configuration not stated) | inconclusive: 20.6 µM [falling, partial curve, poor fit] |
| CNS(=O)(=O)c1cccc(C(=O)OCC(=O)c2cc(C)n(CC3CCCO3)c2C)c1 (configuration not stated) | inconclusive: 8.2 µM [activator, partial curve] |
| O=C(CCc1ccccc1)N1CCN(c2ccc([N+](=O)[O-])cc2)CC1 | inconclusive: 0.731 µM [falling, full curve, poor fit] |
| COc1ccc(Cl)cc1NC(=O)c1c(-c2ccccc2)noc1C | inactive |
| Cc1ccc(C)c(N(CC(=O)Nc2cc(Cl)ccc2Oc2ccccc2)S(C)(=O)=O)c1 | inconclusive: 23.1 µM [falling, single point] |
| O=C(OCCN1C(=O)c2cccc3c(N4CCOCC4)ccc(c23)C1=O)c1ccc(Cl)cc1 | inactive |
| O=S(=O)(Nc1ccccc1N1CCOCC1)c1c(F)cc(F)cc1Br | inconclusive: 6.51 µM [falling, partial curve, poor fit] |
| Cc1ccc(C[n+]2cc(-c3ccc(Cl)cc3)n3c2CCC3)cc1 | inactive |
| CCC(=O)NC(=S)Nc1ccccc1F | inactive |
| COC(=O)CC1(C(=O)OC)Oc2ccc(Br)cc2C(=O)N1c1ccc(Br)cc1Cl (configuration not stated) | active: 16.4 µM |
| CCc1ccc(NC(=O)c2cc(C)no2)cc1 | inconclusive: 20.6 µM [activator, partial curve, poor fit] |
| COc1ccccc1C(=O)Nc1ccc(Oc2ncnc3sc(-c4ccccc4)cc23)cc1 | inactive |
| CCN1C(=O)/C(=C\N2CCN(c3ccccc3)CC2)SC1=S | inconclusive: 2.06 µM [falling, full curve] |

| Compound | Potency |
| --- | --- |
| COc1cc(/C=C(\C#N)C(=O)NC2CCCCC2)ccc1OCc1ccc(C(=O)O)cc1 | inconclusive: 29.1 µM [activator, single point] |
| COc1ccc(-n2nc(C(=O)NCC3CCCO3)c3ccccc3c2=O)cc1 (configuration not stated) | inconclusive: 10.3 µM [falling, partial curve, poor fit] |
| CCOC(=O)c1[nH]c2c(c1C)C(=O)CC(c1ccc(OC)c(OC)c1)C2 (configuration not stated) | inactive |
| CCN(CC)c1nc(Nc2ccccc2)nc(Oc2ccc(=O)n(C)n2)n1 | inactive |
| Cc1ccn2c(C(=O)NNC(=O)Nc3ccc(Cl)cc3)c(C)nc2c1 | inconclusive: 29.1 µM [falling, single point] |
| CCc1cc(C=NC2CCCCC2)c(O)s1 | inconclusive: 18.4 µM [activator, single point] |
| Cc1ccc(C)c(OCC(=O)O/N=C(\N)c2ccccn2)c1 | inconclusive: 1.3 µM [activator, full curve] |
| COc1ccc(Nc2ccc3cc(S(=O)(=O)N4CCCC4)ccc3n2)cc1Cl | active: 25.9 µM |
| Cc1ccc(CC(=O)Nc2cccc(C#N)c2)cc1 | inconclusive: 32.6 µM [falling, single point] |
| Cc1ccc(C)c(S(=O)(=O)N2CCCCC2CCNC(=O)C(=O)NCCc2ccco2)c1 (configuration not stated) | inconclusive: 29.1 µM [falling, single point] |
| CCOc1cc(C(=O)N2CCC3(CC2)NCCc2[nH]cnc23)cc(OCC)c1OCC | inconclusive: 20.6 µM [falling, single point] |
| COc1ccc(NC(=O)Nc2ccccc2SC)cc1 | inconclusive: 4.11 µM [activator, full curve] |
| C/C(=N\NC(=O)c1cc(C)nc2ccccc12)c1ccccn1 | inconclusive: 5.8 µM [falling, partial curve] |
| Cc1c(Cl)cccc1NC(=O)Nc1cc(C(C)(C)C)on1 | inconclusive: 18.4 µM [falling, partial curve, poor fit] |
| Cc1cc(C(=O)Cn2cncn2)c(C)n1CCc1ccc(F)cc1 | inconclusive: 32.6 µM [falling, partial curve, poor fit] |
| Cc1noc(NS(=O)(=O)c2ccc(N/C=C\C(=O)c3cccc4ccccc34)cc2)c1C | inconclusive: 2.59 µM [falling, partial curve, poor fit] |
| CN(C)c1nc(=NCc2cccs2)ss1 | inactive |
| C[C@H](CO)N1C[C@H](C)[C@@H](CN(C)C(=O)NC2CCCCC2)Oc2c(NS(=O)(=O)c3cccs3)cccc2C1=O | inactive |
| COc1cc(NC(=S)NC(=O)c2ccccc2F)ccc1NC(=O)c1cccs1 | inconclusive: 18.4 µM [falling, partial curve, poor fit] |
| Cc1cccc2cc3ccccc3nc12 | inactive |
| N/C(CS(=O)(=O)c1ccccn1)=N\OC(=O)c1ccccc1Cl | inconclusive: 2.59 µM [activator, full curve] |
